According to PubChem BioAssay AID2417 (National Center for Advancing Translational Sciences (NCATS), 2010):
The campaign covered roughly 140,000 compounds. About 4,300 (3.1%) were called active. The inconclusive results got no clear call from the source; some entries with a clear call stand among them for comparison.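 Rule for the calls: active = readout at or below -70, meaning at least 70% loss of cells showing the perinucleolar compartment, a nuclear body marking cancer cells; inconclusive = readout between -30 and a set limit; inactive = the rest.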

Assay: High Content Assay for Compounds that inhibit the Assembly of the Perinucleolar Compartment;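 note: plate controls were DMSO wells for no effect and camptothecin positive control wells for full effect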
Settings: PC3M PTB-GFP, PNC prevalence imaging, 16 h; at 10 µM; active compounds read low
Method in brief: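 Read-out is percentage of cells bearing a perinucleolar compartment, from automated 20x imaging of fixed, Hoechst-stained PC3M PTB-GFP cells. Cells were seeded 4 h, then exposed 16 h to compound (23 nl of library stock) in duplicate plates.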

| Structure (SMILES) | activity change (PNC), negative = inhibition |
| --- | --- |
| CCCCCCSC1=C(C#N)C(=O)NC2(CCCCC2)S1 | inconclusive: -35% |
| COC(=O)c1[nH]c2cc(C)ccc2c1NC(=O)CN1CCN(C(=O)c2ccco2)CC1 | inconclusive: -30.6% |
| CCOC(=O)c1nnn(CC(=O)Nc2ccccc2OC)c1C(=O)OCC | active: -113% |
| COc1cc(CN(C(=O)c2ccco2)c2ccc(C)cc2)ccc1O | inconclusive: -38.1% |
| COC(=O)c1ccccc1NC(=O)COC(=O)c1cccnc1 | inconclusive: -49.1% |
| Cc1cccc(C(C)C)c1NC(=O)COC(=O)c1cccc(S(=O)(=O)N2CCc3ccccc3C2)c1 | inconclusive: -58.6% |
| C#CC[N+](C)(C)CCCCCCCCC | inconclusive: -74% |
| COc1cccc(N2CC(O)=C(c3nc4ccccc4c(=O)[nH]3)C2=N)c1 | inconclusive: -65% |
| CCCCCCCCCc1nc2sc3c(c2c(=O)n1NC(=O)c1ccc([N+](=O)[O-])cc1)CC(C)(C)OC3 | inconclusive: -36.2% |
| CN(CC(=O)NC(=O)NCc1ccccc1)Cc1cccc(Cl)c1Cl | inconclusive: -30.1% |
| CCSc1nnc(NC(=O)Cc2ccc(OC)c(S(=O)(=O)N3CCOCC3)c2)s1 | inconclusive: -71.6% |
| COC(=O)c1cccc(Oc2nc3c(c(=O)n(C)c(=O)n3C)n2C(C)C)c1 | active: -97.1% |
| O=C(NCC1(c2ccccc2)CCCC1)c1ccccc1 | inconclusive: -41.9% |
| COc1ccc2oc(=O)c(C(=O)NCc3cccnc3)cc2c1 | inconclusive: -33.2% |
| COc1cccc(CNc2ccc3c(c2)CCC3)c1 | inactive: 10.3% |
| COc1ccccc1NS(=O)(=O)c1cccc2cccnc12 | inconclusive: -40.2% |
| O=[N+]([O-])c1cc(S(=O)(=O)N2CCCCCC2)ccc1F | inactive: -23.6% |
| Cc1cc(C)nc(N2CCN(c3ncnc4c3oc3ccccc34)CC2)n1 | active: -114% |
| Cc1cccc(Nc2nc(N)c([N+](=O)[O-])c(N3CCOCC3)n2)c1 | inconclusive: -77.6% |
| O=C(Nc1ccccc1N1CCCCC1)c1ccccc1F | inconclusive: -51.2% |
| CC(C)CN=C(NS(=O)(=O)c1ccccc1)C(Cl)(Cl)Cl | inconclusive: -58.3% |
| O=C(Nc1nc(-c2ccccc2)cs1)c1cccc([N+](=O)[O-])c1C(=O)O | inconclusive: -45.8% |
| O=C(CNCCC1=CCCCC1)Nc1ccccc1N1CCCCC1 | inactive: -28.8% |

| Structure (SMILES) | activity change (PNC), negative = inhibition |
| --- | --- |
| CCCCCSc1nc2c(c(=O)[nH]c(=O)n2C)n1CCc1ccccc1 | inconclusive: -49.6% |
| C=CCN1C(=O)CN=C1Nc1ccc(OC)cc1OC | inconclusive: -51.6% |
| Cc1ccccc1NC(=S)c1nc2ccccc2[nH]1 | inactive: -28.4% |
| CC1CCCCN1C(=O)COc1ccc(NC(=O)c2ccco2)cc1 (stereo unspecified) | inconclusive: -51.6% |
| COc1cc(C)ccc1S(=O)(=O)N1CCN(C23CC4CC(CC(C4)C2)C3)CC1 | inconclusive: -32.9% |
| COc1ccccc1-c1nnc(NC(=O)OCC(C)C)s1 | inactive: -20% |
| Cc1cc(=O)oc2cc(OCC(=O)N3CCOCC3)ccc12 | active: -100% |
| Cc1csc2c(C#N)c(=O)c3c(n12)CCC3 | inactive: 2.32% |
| Cc1ccc(O)c(C(=O)c2cnc3c(c2)CN(CCC(C)C)C(=O)N3)c1 | inactive: 0.92% |
| CCCCn1c(=O)n(C)c(=O)c2c3c(sc21)COC(C)(C)C3 | inactive: -2.08% |
| CCCCCOc1ccc(N2C(=O)CC(N(O)c3ccccc3)C2=O)cc1 (stereo unspecified) | inactive: 11.2% |
| Cc1cc2nc(-c3ccc(SCC(=O)N4CCOCC4)nc3)[nH]c2cc1C | active: -89.2% |
| COc1cccc2c1OCC/C2=N\NC(=O)COc1ccc(C)cc1 | inconclusive: -42.3% |
| Cc1ccc(COc2cccc3c2CCN(Cc2ccc(F)cc2)C3=O)cc1 | inactive: -8.1% |
| O=C(N/N=C/c1ccc2c(c1)OCO2)c1cc(-c2ccc(F)cc2)nc2ccccc12 | active: -95.7% |
| N#C/C(=C/c1cn(CC(=O)O)c2ccccc12)c1ccc(F)cc1 | inconclusive: -74.1% |
| CCOC(=O)NC(NCc1cccc(C(F)(F)F)c1)(C(F)(F)F)C(F)(F)F | inconclusive: -36.2% |
| CN(CC(=O)Nc1ccc(C(N)=O)cc1)CC(=O)Nc1ccccc1Cl | inconclusive: -67.6% |
| Cc1ccc(S(=O)(=O)NC2=C(N3CCN(c4ccccc4F)CC3)C(=O)c3ccccc3C2=O)cc1 | inactive: 4.66% |
| Cc1ccc(CNc2cc(-c3nn4c(C)nnc4s3)ccc2C)s1 | inconclusive: -44.6% |
| COc1cccc(OC)c1C(=O)NC(=S)Nc1ccc2oc(=O)ccc2c1 | inactive: -22.5% |
| CCOC(=O)c1sc(N(C)C(C)=O)nc1C | inactive: 24.6% |
| O=C(Cn1cc2c(n1)CCCC2)N1CCCC1 | inconclusive: -55% |

| Structure (SMILES) | activity change (PNC), negative = inhibition |
| --- | --- |
| CCC(CC)NC(=O)c1ccc(Cl)cc1 | inconclusive: -40.9% |
| COc1ccc(/C=N/NC(=S)NCc2ccccc2)cc1OC | inconclusive: -38.9% |
| CCOCCCNC(=O)Cc1c(C(=O)O)[nH]c2ccc(Cl)cc12 | inconclusive: -71.8% |
| NC(N)=NC(=O)Cc1c(Cl)cccc1Cl | inactive: 62.3% |
| COc1ccc(N2CCN(C(CNC(=O)OCc3ccccc3)c3ccco3)CC2)cc1 (stereo unspecified) | inactive: -23% |
| c1ccc(C2=Nc3cccc4cccc(c34)N2)cc1 | inconclusive: -34% |
| CSc1n[nH]c(-c2sccc2OCc2ccc(C)cc2)n1 | inconclusive: -39.9% |
| CCN(CC(=O)Nc1ccc2c(c1)OCCO2)S(=O)(=O)c1ccc(C)cc1 | inconclusive: -50.3% |
| CC(C)(C)NC(=O)Cn1c(SCC(=O)NC2CCCCC2)nc2ccccc21 | active: -100% |
| Cc1cccc(COCC(Cc2ccccc2)N2CCN(C(=O)c3ccc(C(F)(F)F)cc3)CCC2=O)c1 (stereo unspecified) | active: -80.2% |
| Cc1ccsc1C(=O)N/N=C/C=C/c1ccccc1[N+](=O)[O-] | inconclusive: -72.6% |
| Cn1c2ccccc2c2c(C(=O)N3CCN(c4ccccc4)CC3)cn(C3CCCC3)c(=O)c21 | active: -113% |
| Cc1nn(-c2ccccc2C(=O)O)c(=O)c2ccccc12 | inactive: 4.42% |
| Cc1cccc(Cn2c(=O)n(-c3ccc(CC(=O)NCc4ccco4)cc3)c(=O)c3sccc32)c1 | inconclusive: -43.3% |
| Cn1/c(=N/NC(=O)c2cccc(OC(F)F)c2)sc2ccccc21 | inconclusive: -33.3% |
| COc1ccc(Nc2nnc(SCc3cn4c(C)cccc4n3)s2)cc1 | inconclusive: -31.8% |
| Cn1c(SCC(=O)NCc2ccco2)nnc1-c1cccs1 | inconclusive: -37% |
| Cc1nc2ccc(F)cc2cc1C(=O)NC(C)C | inconclusive: -35.9% |
| COCCn1c(C)cc(C(=O)CSc2cc(C)c3ccc(OC)cc3n2)c1C | inconclusive: -39.1% |
| CC(C)(C)c1ccc(S(=O)(=O)NCCOCC(F)(F)C(F)F)cc1 | inconclusive: -32.4% |
| Fc1ccc(C(c2nnnn2Cc2cccs2)N2CCN(C3CCCCC3)CC2)cc1 (stereo unspecified) | inconclusive: -64.6% |
| Clc1ccc(-n2cnnn2)cc1 | inactive: -5.93% |
| O=Nc1c2nc3ccccc3n(O)c-2c2ccccc12 | inconclusive: -53.6% |

Two entries from above, with each value named.
CCN(CC(=O)Nc1ccc2c(c1)OCCO2)S(=O)(=O)c1ccc(C)cc1
  activity change (PNC), negative = inhibition: inconclusive: -50.3%
O=Nc1c2nc3ccccc3n(O)c-2c2ccccc12
  activity change (PNC), negative = inhibition: inconclusive: -53.6%

Remaining list, next part

| Structure (SMILES) | activity change (PNC), negative = inhibition |
| --- | --- |
| CCCn1c(=C(C#N)C#N)s/c(=C2\C=Cc3ccccc3N2CC)c1=O | inconclusive: -38.9% |
| COc1ccc2nc(N3CCC(O)CC3)c(C#N)cc2c1 | inconclusive: -32.9% |
| CS(=O)(=O)N1CCN(c2ccc(NC(=O)c3ccc(-c4ccc(Cl)cc4)o3)cc2)CC1 | inconclusive: -59.4% |
| CCc1ccc(/C=N/Nc2nn[nH]n2)cc1 | inconclusive: -51.6% |
| Cc1ccc(C(=O)NCC(=O)OCC(=O)c2c(N)n(C)c(=O)n(C)c2=O)s1 | inconclusive: -53.4% |
| CCOC(=O)c1ccc(N2C(=O)CC(C(=O)OC)=C2C)cc1 | inconclusive: -54.5% |
| CCOc1ccc(N=C(/C(C(=O)C(=O)N2CCOCC2)=C(\O)c2ccccc2)c2ccccc2)cc1 | inactive: -11.5% |
| Cc1ccccc1OCC(=O)O/N=C(\N)Cc1cccs1 | inactive: 69.8% |
| C=CCN=c1scc(-c2ccc(F)cc2)n1/N=C/c1ccccn1 | inconclusive: -53.3% |
| Cc1ccn2cc(-c3ccc(NC(=O)c4ccco4)cc3)nc2c1 | inconclusive: -44.7% |
| Cc1cc(C)c2oc(C(=O)Nc3ccc(S(=O)(=O)N4CCCC(C)C4)cc3)cc(=O)c2c1 (stereo unspecified) | inactive: 26.3% |
| O=C(O)c1cc(NCc2cccs2)ccc1N1CCOCC1 | inactive: 25.8% |
| O=c1cc(-c2ccccc2)[nH]c2ccc(F)cc12 | inconclusive: -60.4% |
| COc1ccc(S(=O)(=O)Nc2ccccn2)c(C)c1C | inconclusive: -52.2% |
| O=C(CCS(=O)(=O)c1ccccc1)Nc1ccccc1-c1nc2ccccc2s1 | inconclusive: -34.4% |
| COc1ccc(NC(=O)CN2CCN(CC(=O)Nc3ccc(OC)c(OC)c3)CC2)cc1 | inconclusive: -56.2% |
| Cc1cccc(C)c1Nc1nc2ccccc2o1 | inconclusive: -30.7% |
| Cc1cc(NC(=O)CSc2ccc3nnc(-c4ccccc4)n3n2)no1 | inconclusive: -59.6% |
| N#Cc1c(NC(=O)c2ccccc2Cl)n(Cc2ccccc2)c2nc3ccccc3nc12 | inconclusive: -40% |
| CC(C)(C)OC(=O)N1CCN(c2ccc(NC(=O)Cn3nnc(-c4ccccc4)n3)cc2)CC1 | inconclusive: -42.2% |
| Cc1ccc(NC(=O)CSc2nnc(-c3ccccc3Br)o2)cc1C | inconclusive: -47.1% |
| Cc1sc(NC(=O)c2ccccc2)c(C(=O)NCCN(C)C)c1C | inactive: 92.3% |

2 successive records from above, quoted:

| Structure (SMILES) | activity change (PNC), negative = inhibition |
| --- | --- |
| CC(C)(C)OC(=O)N1CCN(c2ccc(NC(=O)Cn3nnc(-c4ccccc4)n3)cc2)CC1 | inconclusive: -42.2% |
| Cc1ccc(NC(=O)CSc2nnc(-c3ccccc3Br)o2)cc1C | inconclusive: -47.1% |
